# PubChem BioAssay AID1259254 – NCATS | 2017
# Test: 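Finding genes that stop cells copying their DNA twice in one cycle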 (primary screen)
# Cells: human HCT116 colorectal cancer cells
# Knock-down reagent: single siRNA against human genes
# Duration: 3 days
# Read-out: 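Nuclei stained with Hoechst and imaged; cell-cycle phase assigned by DNA content; G2 share scaled per plate, non-targeting siRNA 0%, GMNN siRNA 100%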
# Reading the numbers: G2 robust z-score and G2 cells, % of GMNN control: higher = more G2 cells, more excess DNA replication; raw share of cells in G2: higher = larger share of cells with G2 DNA content
# Hit rule: 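Active siRNAs have a G2 robust z of 5 or more median absolute deviations over the median, which in these data means about 38% or higher of GMNN control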
# Shown is one part, drawn at random, of about 59,000 reagents. About 1,550 of them (2.6%) count as active. 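G2 share is only a proxy for re-replication; each gene was hit by three separate siRNAs, and active genes were retested.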 The raw values are shown without normalisation. Reagents against one gene are numbered here. Not stated in the record: the amount of reagent.
gene,reagent no.,G2 robust z-score,"G2 cells, % of GMNN control",raw share of cells in G2 (%),call
FOXH1 (forkhead box H1),1,-0.989,-3.99,3.86,inactive
FOXH1 (forkhead box H1),2,-0.256,1.17,5.13,inactive
FOXH1 (forkhead box H1),3,2.96,23.8,15.4,inactive
SPATS2L (spermatogenesis associated serine rich 2 like),1,2.92,23.5,13.2,inactive
SPATS2L (spermatogenesis associated serine rich 2 like),2,-0.141,1.97,4.79,inactive
SPATS2L (spermatogenesis associated serine rich 2 like),3,1.02,10.2,6.85,inactive
EPC2 (enhancer of polycomb 2),1,-1.19,-5.43,2.37,inactive
EPC2 (enhancer of polycomb 2),2,-0.131,2.05,4.83,inactive
EPC2 (enhancer of polycomb 2),3,2.03,17.2,9.32,inactive
STMN3 (stathmin 3),1,-0.826,-2.85,2.36,inactive
STMN3 (stathmin 3),2,3.55,28,14.5,inactive
STMN3 (stathmin 3),3,0.485,6.38,6.96,inactive
UQCRFS1,1,-0.774,-2.48,4.55,inactive
UQCRFS1,2,-1.24,-5.78,2.57,inactive
UQCRFS1,3,-0.757,-2.36,3.38,inactive
LOC728353 (retired record),1,1.54,13.8,8.78,inactive
LOC728353 (retired record),2,-0.895,-3.33,1.7,inactive
LOC728353 (retired record),3,-0.55,-0.9,3.26,inactive
BSND (barttin CLCNK type accessory subunit beta),1,-0.873,-3.17,3.72,inactive
BSND (barttin CLCNK type accessory subunit beta),2,3.91,30.5,16,inactive
BSND (barttin CLCNK type accessory subunit beta),3,0.119,3.81,4.69,inactive
GCN1 (GCN1 activator of EIF2AK4),1,0.437,6.04,8.32,inactive
GCN1 (GCN1 activator of EIF2AK4),2,2.84,22.9,11.3,inactive
GCN1 (GCN1 activator of EIF2AK4),3,0.165,4.13,8.11,inactive
OR52I2 (olfactory receptor family 52 subfamily I member 2),1,2.03,17.2,9.6,inactive
OR52I2 (olfactory receptor family 52 subfamily I member 2),2,-0.0596,2.55,3.7,inactive
OR52I2 (olfactory receptor family 52 subfamily I member 2),3,-0.723,-2.12,2.33,inactive
WHAMMP2 (WHAMM pseudogene 2),1,3.03,24.3,13,inactive
WHAMMP2 (WHAMM pseudogene 2),2,4.4,33.9,16.3,inactive
WHAMMP2 (WHAMM pseudogene 2),3,-0.287,0.947,3.44,inactive
MAGED2 (MAGE family member D2),1,-0.797,-2.64,3.95,inactive
MAGED2 (MAGE family member D2),2,1.38,12.7,9.37,inactive
MAGED2 (MAGE family member D2),3,0.106,3.71,4.56,inactive
PGLYRP2 (peptidoglycan recognition protein 2),1,1.14,11,8.62,inactive
PGLYRP2 (peptidoglycan recognition protein 2),2,0.3,5.08,7.15,inactive
PGLYRP2 (peptidoglycan recognition protein 2),3,0.609,7.25,9.04,inactive

No new results follow: an excerpt of the list.
gene,reagent no.,G2 robust z-score,"G2 cells, % of GMNN control",raw share of cells in G2 (%),call
EPC2 (enhancer of polycomb 2),2,-0.131,2.05,4.83,inactive
EPC2 (enhancer of polycomb 2),3,2.03,17.2,9.32,inactive
STMN3 (stathmin 3),1,-0.826,-2.85,2.36,inactive
STMN3 (stathmin 3),2,3.55,28,14.5,inactive
STMN3 (stathmin 3),3,0.485,6.38,6.96,inactive
UQCRFS1,1,-0.774,-2.48,4.55,inactive
UQCRFS1,2,-1.24,-5.78,2.57,inactive
UQCRFS1,3,-0.757,-2.36,3.38,inactive
LOC728353 (retired record),1,1.54,13.8,8.78,inactive
LOC728353 (retired record),2,-0.895,-3.33,1.7,inactive
LOC728353 (retired record),3,-0.55,-0.9,3.26,inactive

Continued.
gene,reagent no.,G2 robust z-score,"G2 cells, % of GMNN control",raw share of cells in G2 (%),call
APH1A (aph-1A gamma-secretase subunit),1,0.758,8.3,9.72,inactive
APH1A (aph-1A gamma-secretase subunit),2,3.14,25.1,13.5,inactive
APH1A (aph-1A gamma-secretase subunit),3,0.301,5.08,5.75,inactive
OR2G2 (olfactory receptor family 2 subfamily G member 2),1,4.53,34.8,18.9,inactive
OR2G2 (olfactory receptor family 2 subfamily G member 2),2,0.819,8.73,8.12,inactive
OR2G2 (olfactory receptor family 2 subfamily G member 2),3,0.186,4.28,3.55,inactive
EFCAB7 (EF-hand calcium binding domain 7),1,2.85,23.1,11.8,inactive
EFCAB7 (EF-hand calcium binding domain 7),2,-0.732,-2.18,2.81,inactive
EFCAB7 (EF-hand calcium binding domain 7),3,-0.832,-2.89,1.53,inactive
LCORL (ligand dependent nuclear receptor corepressor like),1,-0.166,1.8,5.46,inactive
LCORL (ligand dependent nuclear receptor corepressor like),2,-0.732,-2.18,3.9,inactive
LCORL (ligand dependent nuclear receptor corepressor like),3,1.45,13.2,12.3,inactive
MAP4 (microtubule associated protein 4),1,-0.396,0.18,3.25,inactive
MAP4 (microtubule associated protein 4),2,3.02,24.2,15.1,inactive
MAP4 (microtubule associated protein 4),3,1.32,12.2,10.1,inactive
H2BC8 (H2B clustered histone 8),1,0.126,3.86,6.84,inactive
H2BC8 (H2B clustered histone 8),2,2.59,21.2,12.3,inactive
H2BC8 (H2B clustered histone 8),3,0.231,4.6,4.97,inactive
ANKRD29 (ankyrin repeat domain 29),1,-0.655,-1.64,2.5,inactive
ANKRD29 (ankyrin repeat domain 29),2,0.177,4.21,5.24,inactive
ANKRD29 (ankyrin repeat domain 29),3,-0.844,-2.97,2,inactive
FOXB2 (forkhead box B2),1,-0.786,-2.56,3.96,inactive
FOXB2 (forkhead box B2),2,1.85,16,12.8,inactive
FOXB2 (forkhead box B2),3,-0.5,-0.549,4.08,inactive
SRCAP-AS1 (SRCAP antisense RNA 1),1,0.553,6.85,6.07,inactive
SRCAP-AS1 (SRCAP antisense RNA 1),2,0.23,4.59,5.47,inactive
SRCAP-AS1 (SRCAP antisense RNA 1),3,1.69,14.8,9.61,inactive
MAP3K6 (mitogen-activated protein kinase kinase kinase 6),1,-0.00463,2.93,6.5,inactive
MAP3K6 (mitogen-activated protein kinase kinase kinase 6),2,-1.06,-4.47,3.57,inactive
MAP3K6 (mitogen-activated protein kinase kinase kinase 6),3,-1.08,-4.63,2.2,inactive
CSNK1E (casein kinase 1 epsilon),1,-0.541,-0.839,5.13,inactive
CSNK1E (casein kinase 1 epsilon),2,-0.371,0.355,5.72,inactive
CSNK1E (casein kinase 1 epsilon),3,-0.0486,2.63,4.95,inactive
